The source of these data is patent US20250084158A1.

Experiment [1] concerns the target T1, huCLL1-His (human) (UniProt Q5QGZ9).
T1 sequence (looked up): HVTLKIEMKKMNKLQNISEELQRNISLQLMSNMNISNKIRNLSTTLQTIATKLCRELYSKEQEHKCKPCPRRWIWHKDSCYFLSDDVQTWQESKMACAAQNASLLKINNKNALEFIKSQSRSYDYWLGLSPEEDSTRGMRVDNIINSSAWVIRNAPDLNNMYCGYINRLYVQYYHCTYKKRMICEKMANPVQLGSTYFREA
Description: ELISA, coated antigen. On the technique in general: An ELISA detects its analyte on a solid surface through an enzyme-linked reagent.

Experiment [2] has as its target human CLL-1 on cells (human) (UniProt Q5QGZ9). Description: FACS on CLL1-expressing cell lines.
Experiment [3] deals with hFc-Cynomolgus CLL1 (cynomolgus). Description: ELISA, 50 and 100 ng/well coated antigen; stronger than reference 6E7.
The target of experiment [4] is human CLL-1 on cells (human) (UniProt Q5QGZ9). Description: FACS, HL60 and U937 cells.
For experiment [5], the target named is hFc-Human CLL1 (human). Description: ELISA, coated antigen.

Results are given in words; binding and its absence hold for the method and conditions named. Some entries that bind do so weakly or less than the wild type. For some of these results: Tags and fused reporters may be left off the sequences shown.

B1: ch16C6(NA) (antibody, human IgG1, kappa, N297A, V domains shown)
VH: EVQLQQSGPELVKPGASVKISCKASGYSFTGYYMHWVKQSHVKSLEWIGHVNPYNGATSFNRNFKDKASLTVDKSSSTAYMELHSLTSEDSAVYYCGRSAYGYYERHFDYWGQGTTLTVSS
VL: DIVLTQSPASLAVSLGQRATISCKASQSVDYDADSYMNWYQQKPGQPPKLLIYAASNLQSGIPARFSGSGSGTDFTLNIHPVEEEDAATYYCQQSDRDPLTFGAGTKLELKR
Take B1: the binding result in experiment [1] is given as “binds”.

B2: ch84A2(NA/N12S) (antibody, human IgG1, kappa, N297A, V domains shown)
VH: EVQLQQSGPELVKSGASVKMSCKASGYTFTSYVIHWVKQMPGQGLEWIGLFNPYNDDVNYNEKFKGKATLTSDKYSSTAYLDLSSLTSEDSAVYYCAREGVHYGRPWFGYWGQGTLVTVSA
VL: DIKMTQSPSSMSASLGERVTITCKASQDIKSYLNWFQQKPGKSPKTLIYRASRLVDGVPARFSGSESGQDYSLTISSLEFEDMGIYYCLQYDEFPLTFGAGTKLELKR
Regarding B2, the binding entry in experiment [2], in experiment [3], in experiment [4], in experiment [1] and in experiment [5] was “binds” in each case.

B3: ch33C2(NA) (antibody, human IgG1, kappa, N297A, V domains shown)
VH: EVQLQQSGPELVKPGASMKISCKASGYSFTGYAMNWVKQSHGKNLEWIGLINPYNGGAMYNQKFKGKATLTVDKSTSTAYMELLSLTSEDSAVYYCARDYRYEGHLDYWGQGTTLTVSS
VL: QIVLTQSPVIMSASPGEKVTMTCSATSSVSYMHWYQQKSGTSPKRWIYDTSKLASGVPVRFSGSGSGTSYSLTISRMEAEDAATYYCQQWSSDSPTFGVGTKLELKR
For B3, the binding result in experiment [1] is on record as “binds”.
